Reference: patent US20240252534A1
No constants are given. Whether binding was seen depends on the method and setting. Some entries that bind do so weakly or less than the wild type. Tags and fused reporters may be left off the sequences shown.

Molecular target: Rhesus PSMA (Rhesus)
Experiment: IHC staining

- binding: binds
B1: NGS2 dAb in murine IgG2A-Fc format (Fc fusion, not shown: a dimerising Fc or GST)
chain: QVQLQESGGGWVQAGGSLRLSCAASGRTSRTYTMGWFRQAPGKDGVFVAGITWSTWSSDKTQYLDSVNSRFTISRDNARNTVYLQMNNLKPEDTAVYYCAATPRYYGVAVPTTRGPYDYWGQGTQVTVSS
